Measured values published in US5098996A (The United States of America as represented by the …, priority 1988, dated 1992).

Assay: peptide synthesis
Details: late stage modification step; run 1

## HPhePheGlyLeuMetNH2 [5n]
  step yield: 60%

## HPhePheGlyLeuMetNH2 [4n]
  step yield: 79%
